Data from PMC11143937.
No constants are given. Whether binding was seen depends on the method and setting. In cells and extracts the contact can be indirect. Some binding calls cover weakened binding; strength is not graded here.

Sequences of proteins named here, by UniProt entry; tags and fusion partners are left off.
UniProt P50096: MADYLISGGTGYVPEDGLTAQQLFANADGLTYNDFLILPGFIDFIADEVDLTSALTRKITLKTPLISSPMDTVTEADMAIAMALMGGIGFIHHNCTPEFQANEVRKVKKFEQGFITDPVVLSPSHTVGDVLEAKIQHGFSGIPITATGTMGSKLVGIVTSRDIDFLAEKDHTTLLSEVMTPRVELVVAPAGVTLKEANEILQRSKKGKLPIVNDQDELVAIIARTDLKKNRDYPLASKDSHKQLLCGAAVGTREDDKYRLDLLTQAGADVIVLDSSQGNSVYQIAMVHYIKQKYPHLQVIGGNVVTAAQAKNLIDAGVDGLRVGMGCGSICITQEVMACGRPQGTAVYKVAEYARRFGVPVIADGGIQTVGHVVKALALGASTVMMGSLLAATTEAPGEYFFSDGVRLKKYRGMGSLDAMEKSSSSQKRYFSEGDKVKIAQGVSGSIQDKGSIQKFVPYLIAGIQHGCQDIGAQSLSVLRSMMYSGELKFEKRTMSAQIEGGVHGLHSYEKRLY
UniProt Q8BRK8: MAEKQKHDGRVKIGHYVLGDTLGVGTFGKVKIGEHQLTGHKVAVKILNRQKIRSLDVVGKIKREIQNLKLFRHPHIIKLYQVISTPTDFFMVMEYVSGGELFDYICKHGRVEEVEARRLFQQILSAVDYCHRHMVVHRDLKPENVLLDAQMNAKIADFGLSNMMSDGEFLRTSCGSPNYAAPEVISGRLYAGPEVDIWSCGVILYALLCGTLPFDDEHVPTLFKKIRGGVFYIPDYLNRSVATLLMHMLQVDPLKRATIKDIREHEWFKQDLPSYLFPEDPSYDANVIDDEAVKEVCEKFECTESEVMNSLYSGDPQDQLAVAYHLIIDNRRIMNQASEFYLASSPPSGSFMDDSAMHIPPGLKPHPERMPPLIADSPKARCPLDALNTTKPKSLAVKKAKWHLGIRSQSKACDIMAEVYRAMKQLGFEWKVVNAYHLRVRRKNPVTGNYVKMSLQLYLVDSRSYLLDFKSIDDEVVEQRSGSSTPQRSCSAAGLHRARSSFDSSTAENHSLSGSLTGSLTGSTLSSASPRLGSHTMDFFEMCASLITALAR

Biological target: inosine monophosphate dehydrogenase 1 (IMPDH1) (mouse (endogenous in retina)) (UniProt P50096)
Assay: co-IP; Dynabeads coated with IMPDH1 antibody (10 ug) added to the lysate of 6 dark-adapted wild-type mouse retinas; eluate probed by Western blot for IMPDH1 and PRKAA2

binding: binds
Substance: AMP-activated protein kinase catalytic subunit alpha-2 (PRKAA2) (from UniProt Q8BRK8 1-552) (enzyme)
